Measured values reported in PubChem BioAssay AID198 (DTP/NCI, 2004).
The list is a part of this screen's results and no random one: it covers a few groups of compounds. Not every dose and run of a compound is shown. T/C: endpoint of the treated group in % of that of the vehicle group. Where survival is the endpoint, the PubChem record calls one and a half times the control and up active, and a quarter to a half above the control has no call in these data; cut-offs in other NCI protocols can differ. Some entries show no survivor count and are marked so; the dose need not have been tolerated. Schedules are NCI's codes, read here as Q, the interval in days (D) or hours (H), X, the number of doses. Some doses were run more than once; the values are given in rising order.

Test system: B16 melanoma ip, C57BL/6 mice, median survival T/C
Assay: NCI In Vivo Anticancer Drug Screen. Data for tumor model B16 Melanoma (intraperitoneal) in C57BL/6 mice
Settings: T/C endpoint: median survival time, schedule: Q01DX009 (ip), vehicle: saline, higher T/C = longer survival
Procedure: The antitumor activity of compounds was measured in mice bearing transplantable tumors. Survival or tumor size were measured and the results are expressed as the measurement made in the treated group (T) divided by the measurement made in the vehicle treated control group (C). The tumor model used in this assay is B16 Melanoma (intraperitoneal) in C57BL/6 mice

Compound: CC(C(=O)O)N(CCCl)CCCl (centres undefined)
- T/C (dose: 0.5 mg/kg/injection): 125 % of control [survivor count not shown]
- T/C (dose: 1.0 mg/kg/injection): 121 [survivor count not shown] and 161 % of control [survivor count not shown]
- T/C (dose: 2.0 mg/kg/injection): 150 [survivor count not shown] and 203 % of control [survivor count not shown]
- T/C (dose: 4.0 mg/kg/injection): 119 % of control [survivor count not shown]
